# Measured values published in doi:10.1101/2022.07.18.500419.
# Amino acid sequences for entries named in this document (tags omitted). A change or cut given only in a name is not applied to a line headed by its entry.
# UniProt P35613: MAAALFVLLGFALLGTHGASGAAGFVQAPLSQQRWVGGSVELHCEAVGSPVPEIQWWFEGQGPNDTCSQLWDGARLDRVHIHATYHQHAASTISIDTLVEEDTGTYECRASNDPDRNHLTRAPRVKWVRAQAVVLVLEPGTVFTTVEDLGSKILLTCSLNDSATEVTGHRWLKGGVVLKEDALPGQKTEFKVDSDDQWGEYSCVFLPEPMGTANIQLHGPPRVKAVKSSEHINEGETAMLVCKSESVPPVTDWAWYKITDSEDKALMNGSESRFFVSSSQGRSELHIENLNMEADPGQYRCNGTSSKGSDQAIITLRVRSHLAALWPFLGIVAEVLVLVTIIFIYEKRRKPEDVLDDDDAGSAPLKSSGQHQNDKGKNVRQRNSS
# Biological target: Basigin (human (endogenous in RBCs)) (UniProt P35613)
# Assay: native gel or EMSA
row,Substance,binding
1,CD44 (from UniProt P16070-12),binds
2,β2-adrenergic receptor (from UniProt P07550 1-413),binds

# Results are given in words; binding and its absence hold for the method and conditions named. Binding calls can cover weak binding; strength is not graded here.
